The record followed here is article PMC5287475.

The chains behind the UniProt entries cited, without tags or fusion partners.
UniProt P25440: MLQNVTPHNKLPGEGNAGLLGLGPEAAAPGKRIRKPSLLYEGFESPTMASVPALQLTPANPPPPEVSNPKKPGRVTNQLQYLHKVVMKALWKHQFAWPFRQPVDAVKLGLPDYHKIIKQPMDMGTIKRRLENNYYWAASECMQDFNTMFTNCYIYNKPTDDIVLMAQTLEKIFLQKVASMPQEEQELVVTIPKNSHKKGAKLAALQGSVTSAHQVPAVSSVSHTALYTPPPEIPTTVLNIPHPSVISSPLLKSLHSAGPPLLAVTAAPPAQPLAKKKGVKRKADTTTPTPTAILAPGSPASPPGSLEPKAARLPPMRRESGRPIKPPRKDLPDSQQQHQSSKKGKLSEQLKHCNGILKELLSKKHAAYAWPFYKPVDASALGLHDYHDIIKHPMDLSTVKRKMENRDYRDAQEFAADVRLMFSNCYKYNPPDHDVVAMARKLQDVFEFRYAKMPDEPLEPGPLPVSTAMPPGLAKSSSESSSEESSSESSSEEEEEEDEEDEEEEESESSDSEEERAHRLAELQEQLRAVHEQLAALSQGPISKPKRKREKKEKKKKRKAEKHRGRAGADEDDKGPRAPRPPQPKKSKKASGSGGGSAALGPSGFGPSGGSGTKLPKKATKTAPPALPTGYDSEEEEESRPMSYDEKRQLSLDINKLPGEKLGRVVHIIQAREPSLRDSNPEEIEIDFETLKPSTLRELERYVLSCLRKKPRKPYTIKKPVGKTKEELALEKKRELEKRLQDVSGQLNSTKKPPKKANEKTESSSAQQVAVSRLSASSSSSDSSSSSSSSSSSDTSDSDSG

The target of the assay is T1, cohesin subunit RAD21 (endogenous) (human (endogenous in BCBL1)) (UniProt O60216).
T1 sequence: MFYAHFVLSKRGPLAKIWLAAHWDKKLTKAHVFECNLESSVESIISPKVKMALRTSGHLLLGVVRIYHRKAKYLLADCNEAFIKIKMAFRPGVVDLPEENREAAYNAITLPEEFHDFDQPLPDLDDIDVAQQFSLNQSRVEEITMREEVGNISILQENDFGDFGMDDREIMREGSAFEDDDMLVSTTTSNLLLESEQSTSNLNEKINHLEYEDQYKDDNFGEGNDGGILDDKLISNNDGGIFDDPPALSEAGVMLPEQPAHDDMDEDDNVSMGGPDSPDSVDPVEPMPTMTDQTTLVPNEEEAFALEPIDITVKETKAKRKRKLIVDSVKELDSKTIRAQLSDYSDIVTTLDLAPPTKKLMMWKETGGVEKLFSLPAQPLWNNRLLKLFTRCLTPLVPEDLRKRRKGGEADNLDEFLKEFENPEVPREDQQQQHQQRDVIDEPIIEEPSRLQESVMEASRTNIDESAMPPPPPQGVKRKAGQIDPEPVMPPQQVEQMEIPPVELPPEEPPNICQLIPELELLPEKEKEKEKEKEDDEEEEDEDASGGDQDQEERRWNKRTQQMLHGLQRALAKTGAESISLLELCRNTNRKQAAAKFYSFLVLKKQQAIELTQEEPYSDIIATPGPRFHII
Nature of the assay: co-IP; endogenous proteins of BCBL1 cells treated with DMSO or JQ1 for 1 hr; IP with antibody to RAD21, BRD2, BRD4 or IgG; Western blot for RAD21, BRD4, BRD2, SMC1 or LANA. (In general: In western blotting, separated proteins are transferred to a membrane and probed.)

No constants are given. Whether binding was seen depends on the method and setting. In cells and extracts the contact can be indirect.

As to “BRD2 (endogenous) (from UniProt P25440 1-801)”, the binding entry is recorded as “no binding”.
